Measurements as given in paper PMC9083330, “An Efficient Evaluation System Accelerates α-Helical Antimicrobial Peptide Discovery and Its Application to Global Human Genome Mining” (Frontiers in Microbiology, 2022).
Values after ≈ are worked out from the molar mass of the structure shown.

Legend:
[1] = tested on: Pseudomonas aeruginosa (CMCC10104); experiment: MIC, broth microdilution; details: CMCC10104, read-out: MIC, 4. P. aeruginosa (CMCC10104)
[2] = tested on: Enterococcus faecium (VRE204) (vancomycin-resistant strain); experiment: MIC, broth microdilution; details: read-out: MIC, 3. E. faecium (VRE204) (vancomycin-resistant strain)

| Structure (SMILES) | MIC [1] [µg/mL] | MIC [2] [µg/mL] |
| --- | --- | --- |
| C[C@H]1COc2c(N3CCN(C)CC3)c(F)cc3c(=O)c(C(=O)O)cn1c23 [Levofloxacin] | 0.5 (≈ 1.38 µM) |  |
| CN[C@H](CC(C)C)C(=O)N[C@H]1C(=O)N[C@@H](CC(N)=O)C(=O)N[C@H]2C(=O)N[C@H]3C(=O)N[C@H](C(=O)N[C@H](C(=O)O)c4cc(O)cc(O)c4-c4cc3ccc4O)[C@H](O)c3ccc(c(Cl)c3)Oc3cc2cc(c3O[C@@H]2O[C@H](CO)[C@@H](O)[C@H](O)[C@H]2O[C@H]2C[C@](C)(N)[C@H](O)[C@H](C)O2)Oc2ccc(cc2Cl)[C@H]1O [Vancomycin] |  | 32 (≈ 22.1 µM) |
